Experimental data from paper PMC6114517.
No constants are given. Whether binding was seen depends on the method and setting. In cells and extracts the contact can be indirect.

Molecular target: T1, Egalitarian (Egl) (Drosophila (endogenous in ovaries and embryos)) (UniProt Q9W1K4)
T1 sequence: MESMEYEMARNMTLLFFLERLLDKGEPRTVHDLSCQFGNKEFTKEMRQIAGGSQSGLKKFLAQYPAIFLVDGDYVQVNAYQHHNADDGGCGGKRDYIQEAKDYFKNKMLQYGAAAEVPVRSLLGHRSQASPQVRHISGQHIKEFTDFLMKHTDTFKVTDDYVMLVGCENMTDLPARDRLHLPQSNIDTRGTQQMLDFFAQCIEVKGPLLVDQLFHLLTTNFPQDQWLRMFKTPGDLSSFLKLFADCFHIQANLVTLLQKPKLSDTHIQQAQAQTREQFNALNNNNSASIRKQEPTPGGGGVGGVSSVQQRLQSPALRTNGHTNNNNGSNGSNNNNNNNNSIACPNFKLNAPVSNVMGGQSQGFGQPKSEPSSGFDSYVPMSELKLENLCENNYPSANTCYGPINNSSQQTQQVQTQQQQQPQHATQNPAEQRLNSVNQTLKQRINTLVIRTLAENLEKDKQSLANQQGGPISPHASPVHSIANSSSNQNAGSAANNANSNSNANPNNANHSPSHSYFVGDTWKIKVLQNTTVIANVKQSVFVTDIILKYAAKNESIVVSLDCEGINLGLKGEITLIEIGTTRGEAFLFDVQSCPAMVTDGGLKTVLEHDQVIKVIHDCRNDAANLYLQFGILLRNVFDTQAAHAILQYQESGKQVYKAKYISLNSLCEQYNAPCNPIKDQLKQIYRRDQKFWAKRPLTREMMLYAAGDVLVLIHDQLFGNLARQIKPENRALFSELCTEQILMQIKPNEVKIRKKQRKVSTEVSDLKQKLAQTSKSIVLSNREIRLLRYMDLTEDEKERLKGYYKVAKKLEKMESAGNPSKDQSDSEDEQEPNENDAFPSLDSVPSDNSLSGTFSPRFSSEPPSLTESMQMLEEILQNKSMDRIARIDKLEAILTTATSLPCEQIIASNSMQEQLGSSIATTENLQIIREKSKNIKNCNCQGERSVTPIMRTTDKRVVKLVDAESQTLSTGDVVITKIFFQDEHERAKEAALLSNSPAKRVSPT
Experiment: condition: only under the stringent purification conditions used in RIP; co-IP; under RIP conditions: anti-Egl on Dynabeads Protein A, ovary lysate of nosGal4; UAS-HeT-A-HA; UAS-spnE_sh flies; lysis buffer 10 mM HEPES pH 7.0, 100 mM KCl, 5 mM MgCl2, 0.5% NP-40, diluted in NT2 buffer; 2 h at 4°C; Western blot of 1/10 of the beads; control normal rabbit IgG

Question: For HeT-A Gag-HA (Drosophila), which binding is on record?
Answer: Its binding is “no binding”.
